Measured values: paper PMC7771966, “Quantitative glycoproteomics reveals cellular substrate selectivity of the ER protein quality control sensors UGGT1 and UGGT2” (eLife, 2020)
No constants are given. Whether binding was seen depends on the method and setting. Binding seen in cells or lysates may run through a third protein.

Amino acid sequences for entries named in this document (tags omitted). Residues count along the entry.
UniProt P15253, residues 18-418: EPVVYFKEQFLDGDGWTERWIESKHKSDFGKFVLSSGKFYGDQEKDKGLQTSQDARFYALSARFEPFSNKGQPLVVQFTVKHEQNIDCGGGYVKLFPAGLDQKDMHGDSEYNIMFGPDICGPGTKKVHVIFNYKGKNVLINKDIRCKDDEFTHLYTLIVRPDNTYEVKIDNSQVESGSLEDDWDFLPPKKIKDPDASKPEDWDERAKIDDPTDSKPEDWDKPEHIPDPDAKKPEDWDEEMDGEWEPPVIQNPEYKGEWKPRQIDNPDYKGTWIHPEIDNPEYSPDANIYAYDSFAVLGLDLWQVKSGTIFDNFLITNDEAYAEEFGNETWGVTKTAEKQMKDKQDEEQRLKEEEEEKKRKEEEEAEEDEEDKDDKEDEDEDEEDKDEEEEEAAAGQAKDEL
UniProt P11717, residues 41-2491: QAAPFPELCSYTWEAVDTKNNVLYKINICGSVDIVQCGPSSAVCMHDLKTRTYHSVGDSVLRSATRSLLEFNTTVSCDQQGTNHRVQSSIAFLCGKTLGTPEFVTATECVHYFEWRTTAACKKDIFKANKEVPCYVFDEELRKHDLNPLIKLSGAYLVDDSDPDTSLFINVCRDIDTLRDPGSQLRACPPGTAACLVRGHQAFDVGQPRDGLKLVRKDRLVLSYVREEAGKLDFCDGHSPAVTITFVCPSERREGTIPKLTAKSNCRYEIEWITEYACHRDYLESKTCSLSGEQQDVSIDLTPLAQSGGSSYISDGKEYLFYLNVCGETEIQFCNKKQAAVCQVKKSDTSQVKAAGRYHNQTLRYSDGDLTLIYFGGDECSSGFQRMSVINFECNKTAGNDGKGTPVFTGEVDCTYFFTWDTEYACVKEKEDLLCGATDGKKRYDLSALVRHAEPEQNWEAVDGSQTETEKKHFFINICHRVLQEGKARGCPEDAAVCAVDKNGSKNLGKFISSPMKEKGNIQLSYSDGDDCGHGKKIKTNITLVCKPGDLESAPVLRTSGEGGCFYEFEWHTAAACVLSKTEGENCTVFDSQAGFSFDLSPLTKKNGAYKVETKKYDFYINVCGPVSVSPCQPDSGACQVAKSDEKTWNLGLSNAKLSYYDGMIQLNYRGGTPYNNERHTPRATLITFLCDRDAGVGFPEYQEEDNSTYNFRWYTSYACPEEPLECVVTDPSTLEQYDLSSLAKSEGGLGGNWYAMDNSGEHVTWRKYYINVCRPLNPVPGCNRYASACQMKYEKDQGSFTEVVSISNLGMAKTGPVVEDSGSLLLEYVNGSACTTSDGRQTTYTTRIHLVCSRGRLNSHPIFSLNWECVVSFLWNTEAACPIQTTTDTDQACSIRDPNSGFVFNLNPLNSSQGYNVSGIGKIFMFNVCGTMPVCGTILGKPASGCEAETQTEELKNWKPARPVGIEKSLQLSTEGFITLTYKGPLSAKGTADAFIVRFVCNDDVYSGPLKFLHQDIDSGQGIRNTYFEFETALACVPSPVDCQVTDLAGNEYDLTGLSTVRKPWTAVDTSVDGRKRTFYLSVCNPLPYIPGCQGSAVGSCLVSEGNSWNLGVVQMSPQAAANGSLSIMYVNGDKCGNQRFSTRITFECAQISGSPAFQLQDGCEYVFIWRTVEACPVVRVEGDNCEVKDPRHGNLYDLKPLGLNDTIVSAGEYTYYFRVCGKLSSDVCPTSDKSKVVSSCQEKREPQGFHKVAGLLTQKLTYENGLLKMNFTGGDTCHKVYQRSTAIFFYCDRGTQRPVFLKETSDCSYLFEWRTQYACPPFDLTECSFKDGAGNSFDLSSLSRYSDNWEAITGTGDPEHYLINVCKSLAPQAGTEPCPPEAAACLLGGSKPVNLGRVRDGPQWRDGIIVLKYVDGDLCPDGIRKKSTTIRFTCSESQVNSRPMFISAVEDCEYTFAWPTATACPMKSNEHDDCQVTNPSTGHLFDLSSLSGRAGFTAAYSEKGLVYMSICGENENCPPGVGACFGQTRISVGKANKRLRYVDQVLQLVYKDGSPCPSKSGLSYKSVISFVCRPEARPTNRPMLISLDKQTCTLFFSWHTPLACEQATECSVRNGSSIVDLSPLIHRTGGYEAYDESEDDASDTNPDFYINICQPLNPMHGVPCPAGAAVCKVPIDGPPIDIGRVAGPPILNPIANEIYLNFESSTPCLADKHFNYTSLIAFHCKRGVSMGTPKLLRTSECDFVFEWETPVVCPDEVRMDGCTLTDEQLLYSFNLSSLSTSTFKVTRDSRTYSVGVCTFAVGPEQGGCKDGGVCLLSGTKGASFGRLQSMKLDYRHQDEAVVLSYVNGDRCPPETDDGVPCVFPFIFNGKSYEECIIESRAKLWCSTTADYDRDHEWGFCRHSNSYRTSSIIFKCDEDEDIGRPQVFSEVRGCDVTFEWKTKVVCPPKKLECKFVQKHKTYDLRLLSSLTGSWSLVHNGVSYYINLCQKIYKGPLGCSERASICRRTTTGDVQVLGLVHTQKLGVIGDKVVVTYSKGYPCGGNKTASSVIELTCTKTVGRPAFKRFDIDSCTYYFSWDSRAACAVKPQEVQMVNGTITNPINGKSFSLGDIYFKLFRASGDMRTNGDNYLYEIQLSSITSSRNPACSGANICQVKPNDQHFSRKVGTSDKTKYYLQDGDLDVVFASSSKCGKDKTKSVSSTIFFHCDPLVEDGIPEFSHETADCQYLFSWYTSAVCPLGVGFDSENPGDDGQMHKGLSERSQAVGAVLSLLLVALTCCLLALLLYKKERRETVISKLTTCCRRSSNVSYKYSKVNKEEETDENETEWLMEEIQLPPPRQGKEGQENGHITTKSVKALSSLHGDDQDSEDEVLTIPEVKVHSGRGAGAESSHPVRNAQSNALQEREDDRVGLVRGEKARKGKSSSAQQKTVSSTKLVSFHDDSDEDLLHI
UniProt P08069, residues 31-1367: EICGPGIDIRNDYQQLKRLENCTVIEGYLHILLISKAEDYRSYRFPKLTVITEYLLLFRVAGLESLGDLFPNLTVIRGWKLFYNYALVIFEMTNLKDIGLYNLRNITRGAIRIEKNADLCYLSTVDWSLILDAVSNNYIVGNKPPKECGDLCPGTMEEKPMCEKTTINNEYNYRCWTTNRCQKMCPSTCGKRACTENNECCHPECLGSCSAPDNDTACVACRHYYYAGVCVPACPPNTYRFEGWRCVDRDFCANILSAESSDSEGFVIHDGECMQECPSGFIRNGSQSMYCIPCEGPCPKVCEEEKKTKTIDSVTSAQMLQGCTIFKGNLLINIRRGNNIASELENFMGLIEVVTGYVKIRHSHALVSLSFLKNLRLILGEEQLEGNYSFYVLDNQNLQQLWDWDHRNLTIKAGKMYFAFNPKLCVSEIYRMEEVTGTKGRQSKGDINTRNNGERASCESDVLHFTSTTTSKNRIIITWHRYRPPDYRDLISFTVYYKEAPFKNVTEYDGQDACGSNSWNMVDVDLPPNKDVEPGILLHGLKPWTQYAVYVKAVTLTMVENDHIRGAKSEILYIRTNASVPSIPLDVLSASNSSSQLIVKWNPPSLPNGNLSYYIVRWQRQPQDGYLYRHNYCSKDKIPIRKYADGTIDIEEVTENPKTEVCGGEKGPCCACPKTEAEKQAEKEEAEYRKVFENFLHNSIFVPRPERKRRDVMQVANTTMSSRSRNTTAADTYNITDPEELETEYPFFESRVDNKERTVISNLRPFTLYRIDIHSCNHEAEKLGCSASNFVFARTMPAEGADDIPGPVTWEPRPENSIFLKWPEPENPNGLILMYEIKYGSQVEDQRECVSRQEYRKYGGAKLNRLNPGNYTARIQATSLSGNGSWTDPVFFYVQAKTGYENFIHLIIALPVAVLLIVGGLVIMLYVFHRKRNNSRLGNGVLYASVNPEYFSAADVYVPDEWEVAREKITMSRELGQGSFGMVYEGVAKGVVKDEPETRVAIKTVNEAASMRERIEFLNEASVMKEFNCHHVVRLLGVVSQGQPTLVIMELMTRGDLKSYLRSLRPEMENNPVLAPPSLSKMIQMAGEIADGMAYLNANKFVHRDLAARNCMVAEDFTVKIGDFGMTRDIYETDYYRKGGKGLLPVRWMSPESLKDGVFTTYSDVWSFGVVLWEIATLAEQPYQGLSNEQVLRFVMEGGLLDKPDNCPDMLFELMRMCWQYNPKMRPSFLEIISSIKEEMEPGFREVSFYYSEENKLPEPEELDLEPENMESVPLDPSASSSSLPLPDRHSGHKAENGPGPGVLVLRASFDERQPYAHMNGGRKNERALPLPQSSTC

Biological target: glutathione S-transferase-calreticulin (GST-CRT) (UniProt P15253)
Test: condition: only lysate of ALG6/UGGT1/UGGT2-/- cells (no reglucosylation); pull-down; as a2, but lysate of ALG6/UGGT1/UGGT2-/- HEK293-EBNA1-6E cells (no reglucosylation by UGGT1 or UGGT2); only the target purified

cation-independent mannose-6-phosphate receptor (CI-M6PR) (from UniProt P11717 41-2491)
binding: no binding

insulin-like growth factor type one receptor (IGF-1R) (from UniProt P08069 31-1367)
binding: no binding
